Structures can show the parent of a compound that is named as a salt. Where two headings read alike, the source gives them in different places.

The subject of series [1] is animals. The series is described as follows: Behavioral toxicology: openfield, elevated plus, ataxia. The series is classed as in vivo.
In series [2] the test system is animals. Particulars: Tissue pathology following minimum 28 day continuous perfusion.
Series [3] relates to anxiety in rats (elevated plus maze, open field). The series is described as follows: Elevated plus maze and open field conflicts test after ICV antidepressants. The series is classed as in vivo, rat. Particulars: for efficacy following ICV administration: elevated plus maze and open field conflicts test; for Efficacy: rat, in vivo.

`CNCCC(Oc1ccc(C(F)(F)F)cc1)c1ccccc1` (racemic) [Fluoxetine, (+/−)-N-Methyl-3-phenyl-3-(alpha,alpha,alpha-trifluoro-p-tolyloxy)propylamine hydrochloride]: the Highest non-toxic concentration in the series with animals [1] was 0.0172 mg/mL. In addition, the Highest non-toxic concentration in the series on animals [2] came out at 0.0172 mg/mL. In series [3], the “efficacy following ICV administration” value is on record as “efficacy” and the Efficacy entry was “anxiety reduction”.
For `CN(C)CCCN1c2ccccc2CCc2ccc(Cl)cc21` [Clomipramine, 3-(3-Chloro-10,11-dihydro-5H-dibenz[b,f]azepin-5-yl)propyldimethylamine hydrochloride], in series [3], the “efficacy following ICV administration” value is on record as “efficacy” and the Efficacy entry is “anxiety reduction”.

The values above are taken from patent US20140100183A1, “CENTRAL ADMINISTRATION OF STABLE FORMULATIONS OF THERAPEUTIC AGENTS FOR CNS CONDITIONS” (The Regents of the University of Colorado, a body corporate, priority 2006, published 2014).
